Results taken from article PMC9507967.

Sequences of proteins named here, by UniProt entry; tags and fusion partners are left off. A change or cut given only in a name is not applied to a line headed by its entry.
UniProt Q10109: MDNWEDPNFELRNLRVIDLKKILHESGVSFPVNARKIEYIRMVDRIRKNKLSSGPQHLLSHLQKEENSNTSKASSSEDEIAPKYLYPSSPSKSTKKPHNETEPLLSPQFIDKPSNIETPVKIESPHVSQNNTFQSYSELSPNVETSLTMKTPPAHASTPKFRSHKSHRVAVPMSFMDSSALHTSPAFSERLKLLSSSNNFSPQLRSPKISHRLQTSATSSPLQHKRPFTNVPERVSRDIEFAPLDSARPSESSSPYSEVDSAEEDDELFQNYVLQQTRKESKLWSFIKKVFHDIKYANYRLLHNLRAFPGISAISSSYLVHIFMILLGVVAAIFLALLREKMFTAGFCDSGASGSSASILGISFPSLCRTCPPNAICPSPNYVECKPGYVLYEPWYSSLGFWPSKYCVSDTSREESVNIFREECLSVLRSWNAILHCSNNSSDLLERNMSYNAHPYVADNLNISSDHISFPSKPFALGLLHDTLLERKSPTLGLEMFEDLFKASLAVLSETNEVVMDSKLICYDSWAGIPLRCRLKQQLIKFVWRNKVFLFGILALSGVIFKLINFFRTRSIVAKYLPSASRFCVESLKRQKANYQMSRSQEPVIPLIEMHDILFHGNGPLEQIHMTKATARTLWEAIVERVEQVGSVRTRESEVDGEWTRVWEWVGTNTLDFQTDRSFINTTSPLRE
UniProt Q8NC56: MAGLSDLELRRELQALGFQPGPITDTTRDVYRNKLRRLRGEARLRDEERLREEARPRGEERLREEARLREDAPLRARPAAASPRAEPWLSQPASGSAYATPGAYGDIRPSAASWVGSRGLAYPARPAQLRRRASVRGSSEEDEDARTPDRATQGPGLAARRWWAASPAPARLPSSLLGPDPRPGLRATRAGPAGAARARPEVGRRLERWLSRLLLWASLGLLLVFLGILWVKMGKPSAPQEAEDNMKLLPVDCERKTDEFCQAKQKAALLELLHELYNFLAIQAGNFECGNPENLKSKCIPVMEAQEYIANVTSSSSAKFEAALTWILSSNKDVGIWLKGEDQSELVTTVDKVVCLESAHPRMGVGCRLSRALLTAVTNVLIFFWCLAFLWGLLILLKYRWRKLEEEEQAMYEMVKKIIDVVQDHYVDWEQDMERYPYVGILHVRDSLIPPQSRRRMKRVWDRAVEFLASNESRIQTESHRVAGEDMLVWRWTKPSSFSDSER

B1: full-length S. pombe Red1 (spRed1), yeast two-hybrid fusion (protein, UniProt Q9UTR8 1-712)
chain: MSRSINLDELRKKALESKKKNEEDESNDSDKEDGEISEDDPVIDQSNSVPPMKVPTFPEQIPQLPPFDRFPGTNANFFPFGAPFMLPPALMFGPNTVPFFPQTASSNKTFSKRKRSSENSFNNRNKAKSSETSDSSNTSQSFKENRALKDTATSRPLALSSDTSYQKSEKAKSEKSPFLSTSKNSDANYSKTTNQKEAEKAVSQLFEVGVRFNDFIAEGIEPSVVHTLFLKLGLDSSSASSQGSLTLSADKAARSAKLRKIDSNLSDTHILPGDNGTPTVLPERKNLISLPLLKQDDWLSSSKPFGSSTPNVVIEFDSDDDGDDFSNSKIEQSNLEKPPSNSENGLTMSRSDYLALLRNKEEEIRRMTKLILRLESNKKPYRSPTSAADMKLPSVPVAAVDNKSKTHLDTFEKVVDLSSKADFVEAGPSISSSGASSSAATTNSDTTEQILEAPWLRKTEQIAVVHEEHPAQIKKSEIDILNNLIEKEEGELTKYQTLVKSKTEILTQLYTRKKQLLEQQGKGNVACLPKESDLSMDSITEVSAQADENSSQILSSKTSNAPNGTTETDFEDKVPLVDYISPFYRFKSYRFNQQFVERVPLKYRSLTYSNKIEPMKVFCKYETTGGVCNDDHCEASHFRDIKMTDDEIIQDLSRYIEGNDEIEKESYKSGLDIVMKNTDENTDFVDVATRIVEYHNLWKSERMTIPVAKVSI
B2: hsRed1 (H. sapiens homolog of Red1 corresponding to ZFC3H1 492–1308 aa), yeast two-hybrid fusion (domain or fragment, UniProt O60293 492-1308)
chain: VGGKRRSRSKSSDPDLRRSLDKQPTDSGGGIYQYDNYEEVAMDTDSETSSPAPSPVQPPFFSECSLGYFSPAPSLSLPPPPQVSSLPPLSQPYVEGLCVSLEPLPPLPPLPPLPPEDPEQPPKPPFADEEEEEEMLLREELLKSLANKRAFKPEETSSNSDPPSPPVLNNSHPVPRSNLSIVSINTVSQPRIQNPKFHRGPRLPRTVISLPKHKSVVVTLNDSDDSESDGEASKSTNSVFGGLESMIKEARRTAEQASKPKVPPKSEKENDPLRTPEALPEEKKIEYRLLKEEIANREKQRLIKSDQLKTSSSSPANSDVEIDGIGRIAMVTKQVTDAESKLKKHRILLMKDESVLKNLVQQEAKKKESVRNAEAKITKLTEQLQATEKILNVNRMFLKKLQEQIHRVQQRVTIKKALTLKYGEELARAKAVASKEIGKRKLEQDRFGPNKMMRLDSSPVSSPRKHSAELIAMEKRRLQKLEYEYALKIQKLKEARALKAKEQQNISPVVEEEPEFSLPQPSLHDLTQDKLTLDTEENDVDDEILSGSSRERRRSFLESNYFTKPNLKHTDTANKECINKLNKNTVEKPELFLGLKIGELQKLYSKADSLKQLILKTTTGITEKVLHGQEISVDVDFVTAQSKTMEVKPCPFRPYHSPLLVFKSYRFSPYYRTKEKLPLSSVSYSNMIEPDQCFCRFDLTGTCNDDDCQWQHIQDYTLSRKQLFQDILSYNLSLIGCAETSTNEEITASAEKYVEKLFGVNKDRMSMDQMAVLLVSNINESKGHTPPFTTYKDKRKWKPKFWRKPISDNSFSSDEEQ
B3: S. pombe Rrp6 (spRrp6), yeast two-hybrid fusion (protein, UniProt Q10146 1-777)
chain: MDESELFKGLMNSTAYCSELAKVDIPFYKSIDTEFNENIKSVSSRFMRLIELLLSKVDRSRAEDIVDVEDIDNRWAEVSDTLDILFEKADYSIDKAQGLLKKPAIETHASTSDVANKKPKKEKLPYKVIHAAHLTKPQLRFRVQPNNSREFVWSWKLTEKPHSLVPLEKIIAQVKLDPSLKNSLPHPYEPEIQNSVYPPWVSEMSNPIDTGSVDETEPIWVSTESQLSDMLKELQNSKEIAVDLEHHDYRSFRGFVCLMQISNREKDWIVDTLELREELEALNVVFTNPNIIKVFHGATMDIIWLQRDFGLYVVNLFDTYYATKVLGFEGHGLAFLLQKYCDYDADKRYQMADWRIRPLPREMLKYAQSDTHYLLYIWDHLRNELISKSAERKENLMQSVFNSSKQISLRKYELEPYDPIYGLGTDGWRNVLTKFGSSKIIGREALMIYRALHDWRDSVARKEDESVRYVLPNRLLIAIAASKPVEAADVFSISKQLTPIARMYVEDIVKVVQEAEKLYNEQVDREKSQFKEVEKQNQPLAVFSESNTLGDYKVDSSVFEISKQNRSKLKTLLANGSAFWIEGQSQDDLRKARKERLFIVNQNIPFSLTLPCTQGHVESELNVKQSTVTEAANPSLNGEKKQEPIVIRDLGLNKQKRDSSKLNHKEPSNPIEERNEDIEPSEASTSVSKKRKQKKKKKNSGKLTIEAEHVSNDSPIINEAPFDYKNQKNFIADLDSDVGKNKFGKRGFNPLNKVSLPKRNTRELKKRKVSDGKSTSY
B4: Pab2, yeast two-hybrid fusion (protein, UniProt O14327 1-166)
chain: MSDQDALDTQEKELLEMKERVAEMEAEAAKLRAMQEQLDNETEALRNDKESIDAQSVYVGNVDYSVTPEELQSHFASCGSVNRVTILCDKFTGHPKGFAYIEFSEPSLVPNALLLNGSMLHERPLKVTPKRTNVPGMSRGRGRGRGRGRGRGRGGYRGRARGFAPY

What was measured:
[1] = molecular target: MSC domain of S. pombe Lem2 (MSC-spLem2), yeast two-hybrid fusion (S. pombe) (UniProt Q10109); assay: two-hybrid; pGADT7 (Gal4 activation domain) and pGBKT7 (Gal4 DNA-binding domain) fusions co-transformed into S. cerevisiae Y2H Gold; spotting on SDC-Leu-Trp, SDC-Leu-Trp-His and SDC-Leu-Trp-His-Ade, grown for 3 days
[2] = molecular target: MSC domain of human LEM2 (MSC-hsLem2), yeast two-hybrid fusion (human) (UniProt Q8NC56); assay: as above

Row | Binder | binding [1] | binding [2]
1 | B1 | binds | 
2 | B2 |  | binds
3 | B3 | no binding | 
4 | B4 | no binding | 

No constants are given. Whether binding was seen depends on the method and setting. Binding calls can cover weak binding; strength is not graded here. Where a sequence is shown, tags or fusion partners need not be part of it.
